{"source": "PubChem BioAssay AID1259275 (Sanger Institute, 2017)", "screen": "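Kinome and custom colorectal gene library screened for lethal knock-downs and drug partners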 (primary screen)", "system": "COLO320HSR human colorectal cancer cells", "knock-down reagent": "siRNA pool against human genes", "challenge": "anchor drug added one day after transfection: BYL719 at 1 µM, cetuximab at 5 µg/ml or trametinib at 10 nM; DMSO as vehicle arm", "measurement": "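Replicate-mean viability versus non-targeting pool control, robust z-score without drug, and per-drug synergy scores for BYL719 at 1 µM, cetuximab at 5 µg/ml and trametinib at 10 nM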", "scale": "robust z-score, siRNA alone: higher = more viable cells; strongly negative means essential", "active means": "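a gene is called essential when its robust z-score without drug falls below -3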", "calls": "active = essential (siRNA alone); inactive = no change (siRNA alone)", "note": "In all, the deposit lists 794 reagents; shown is a part drawn at random. 13 of them (1.6%) were called active. 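Calls mark knock-downs lethal by themselves, not drug synergy; drugs went in a day after transfection, with DMSO as vehicle.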 Not all columns of the deposit are shown. Not given: the amount of reagent, the time to read-out."}
{"gene symbol": "CDK1", "robust z-score, siRNA alone": 0.726, "call": "inactive"}
{"gene symbol": "MYLK2", "robust z-score, siRNA alone": 0.46, "call": "inactive"}
{"gene symbol": "PTPRU", "robust z-score, siRNA alone": -0.902, "call": "inactive"}
{"gene symbol": "TRIB2", "robust z-score, siRNA alone": 0.351, "call": "inactive"}
{"gene symbol": "TSKS", "robust z-score, siRNA alone": 0.726, "call": "inactive"}
{"gene symbol": "TNK1", "robust z-score, siRNA alone": 0.726, "call": "inactive"}
{"gene symbol": "PIK3R5", "robust z-score, siRNA alone": -0.291, "call": "inactive"}
{"gene symbol": "CDK2", "robust z-score, siRNA alone": 0.726, "call": "inactive"}
{"gene symbol": "PI4K2B", "robust z-score, siRNA alone": -0.568, "call": "inactive"}
{"gene symbol": "SMAD2", "robust z-score, siRNA alone": -0.161, "call": "inactive"}
{"gene symbol": "PFKFB4", "robust z-score, siRNA alone": 0.519, "call": "inactive"}
{"gene symbol": "FCSK", "robust z-score, siRNA alone": 0.224, "call": "inactive"}
{"gene symbol": "NUCKS1", "robust z-score, siRNA alone": 0.24, "call": "inactive"}
{"gene symbol": "PIP5KL1", "robust z-score, siRNA alone": 0.342, "call": "inactive"}
{"gene symbol": "PSKH1", "robust z-score, siRNA alone": 0.482, "call": "inactive"}
{"gene symbol": "PTEN", "robust z-score, siRNA alone": 0.0145, "call": "inactive"}
{"gene symbol": "MVK", "robust z-score, siRNA alone": -0.109, "call": "inactive"}
{"gene symbol": "PRKCE", "robust z-score, siRNA alone": -1.5, "call": "inactive"}
{"gene symbol": "YES1", "robust z-score, siRNA alone": 0.726, "call": "inactive"}
{"gene symbol": "NME6", "robust z-score, siRNA alone": 0.0485, "call": "inactive"}
{"gene symbol": "GRK7", "robust z-score, siRNA alone": -0.0507, "call": "inactive"}
{"gene symbol": "EIF2AK1", "robust z-score, siRNA alone": 0.726, "call": "inactive"}
{"gene symbol": "MPP2", "robust z-score, siRNA alone": 0.726, "call": "inactive"}
{"gene symbol": "DGKD", "robust z-score, siRNA alone": 0.171, "call": "inactive"}
{"gene symbol": "PDK3", "robust z-score, siRNA alone": 0.683, "call": "inactive"}
{"gene symbol": "AK7", "robust z-score, siRNA alone": -0.0463, "call": "inactive"}
{"gene symbol": "FASTK", "robust z-score, siRNA alone": -1.39, "call": "inactive"}
{"gene symbol": "EEF2K", "robust z-score, siRNA alone": -0.364, "call": "inactive"}

Entries listed so far whose target name starts with E or e:
{"gene symbol": "EIF2AK1", "robust z-score, siRNA alone": 0.726, "call": "inactive"}
{"gene symbol": "EEF2K", "robust z-score, siRNA alone": -0.364, "call": "inactive"}
